These are yes or no findings as the source states them, for the method shown. In cells and extracts the contact can be indirect. Here binding means that the protein was enriched with, or labelled near, the bait; the list need not be complete.
Biological target: Human epidermal growth factor receptor 2 (HER2) (human (endogenous in SKBR3)) (UniProt P04626)
Assay: affinity purification with mass spectrometry; RIME: anti-HER2 (sc-284) immunoprecipitation from nuclear (Nuclei Pure Prep kit) or chromatin (Subcellular Extraction kit) fractions of SILAC-labelled SKBR3 cells treated with vehicle or EGF for 3 hours, labels mixed; IgG control; on-bead trypsin digestion, LC-MS/MS

Amino acid sequences for entries named in this document (tags omitted).
UniProt P40763: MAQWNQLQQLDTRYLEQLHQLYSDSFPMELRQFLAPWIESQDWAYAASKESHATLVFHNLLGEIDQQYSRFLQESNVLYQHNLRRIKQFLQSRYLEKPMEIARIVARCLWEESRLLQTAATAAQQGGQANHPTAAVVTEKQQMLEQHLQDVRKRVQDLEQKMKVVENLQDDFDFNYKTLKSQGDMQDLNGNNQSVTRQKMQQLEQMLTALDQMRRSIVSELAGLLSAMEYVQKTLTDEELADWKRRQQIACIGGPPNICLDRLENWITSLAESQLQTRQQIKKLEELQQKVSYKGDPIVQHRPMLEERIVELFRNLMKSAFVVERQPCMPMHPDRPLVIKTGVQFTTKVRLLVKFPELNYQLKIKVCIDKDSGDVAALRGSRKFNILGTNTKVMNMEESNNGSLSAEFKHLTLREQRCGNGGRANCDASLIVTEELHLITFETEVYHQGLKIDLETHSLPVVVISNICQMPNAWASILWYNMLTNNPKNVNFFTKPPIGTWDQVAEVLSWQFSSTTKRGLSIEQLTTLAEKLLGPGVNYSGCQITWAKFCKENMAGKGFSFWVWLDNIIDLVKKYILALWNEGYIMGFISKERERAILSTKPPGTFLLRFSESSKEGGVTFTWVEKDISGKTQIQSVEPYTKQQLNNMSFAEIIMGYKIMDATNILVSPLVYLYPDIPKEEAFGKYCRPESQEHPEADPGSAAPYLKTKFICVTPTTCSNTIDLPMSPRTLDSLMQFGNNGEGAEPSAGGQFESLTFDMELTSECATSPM

binding: binds
Substance: signal transducer and activator of transcription 3 (STAT3) (from UniProt P40763 1-770)

Reference: PMC6867699
